Here are results for four sequences from paper PMC9001735, “Insights into the inhibition of type I-F CRISPR-Cas system by a multifunctional anti-CRISPR protein AcrIF24”.

Holding throughout (assay): EMSA
(In general: In EMSA bound probe runs differently from free probe, usually more slowly.)

Series [1] relates to AcrIF24 N194A (Pseudomonas aeruginosa prophage). Conditions: EMSA: 20 mM HEPES pH 7.5, 150 mM NaCl, 5% glycerol, 37 C 30 min, 1 uM DNA (20 nM for Kd), recombinant protein, protein details: N-terminal GPLGS remnant.
Series [2] has as its system AcrIF24 K197A (Pseudomonas aeruginosa prophage). Particulars: EMSA: 20 mM HEPES pH 7.5, 150 mM NaCl, 5% glycerol, 37 C 30 min, 1 uM DNA (20 nM for Kd), recombinant protein, protein details: N-terminal GPLGS remnant when expressed alone.
The subject of series [3] is AcrIF24 R196A (Pseudomonas aeruginosa prophage). Particulars: EMSA: 20 mM HEPES pH 7.5, 150 mM NaCl, 5% glycerol, 37 C 30 min, 1 uM DNA (20 nM for Kd), recombinant protein, protein details: N-terminal GPLGS remnant when expressed alone.
In series [4] the test system is AcrIF9. Conditions: AcrIF9 alone, EMSA: 20 mM HEPES pH 7.5, 150 mM NaCl, 5% glycerol, 37 C 30 min, 1 uM DNA (20 nM for Kd), recombinant protein, protein details: His6 (pET28a) when expressed alone.
Series [5] relates to AcrIF24 (Pseudomonas aeruginosa prophage). Conditions: EMSA: 20 mM HEPES pH 7.5, 150 mM NaCl, 5% glycerol, 37 C 30 min, 1 uM DNA (20 nM for Kd), recombinant protein.
Where [6] appears, read: decreased vs WT, legend: fails to interact, label: 5'-FAM or 3'-FAM, unlabelled as competitor.
Setting [7] is: decreased vs WT, legend: fails to interact.

The exact form of at least one protein or probe is not confirmed. For some of these results: Negatives hold for the conditions tested. For some of these results: A weaker result is weaker than the reference pair of the same experiment. For some of these results: At least one verdict was read from the data and is not stated in words by the source.

For “GAGCGACTACGACATGAGCGCGCAGCTAAGACCGCCCGTAGATGCGTCGAGCGT (double strand) [dsDNANS 54 bp]”, the binding result is “binds more weakly” in series [1] (same weak binding as WT AcrIF24, label: 5'-FAM or 3'-FAM, unlabelled as competitor); “binds more weakly” in series [2] (setting [6]); “binds more weakly” in series [3] (setting [6]); “no binding” in series [4] (label: 5'-FAM or 3'-FAM, unlabelled as competitor).

“GCAAAGGTCCATCGGACCTTGTA (double strand) [IR23-24 mutated]”: the binding result in series [5] (label: 5'-FAM) is recorded as “binds more weakly”.

On to “GCATAGCTCGATCCGAGCTAGTA (double strand) [IR23-24 WT]”, for which the binding result in series [1] (label: 5'-FAM), in series [2] (label: 5'-FAM) and in series [3] (label: 5'-FAM) was “binds more weakly” throughout.

Consider “GGAAGCCATCCAGGTAGACGCGGACATCAAGCCCGCCGTGAAGGTGCAGCTGCT (double strand) [dsDNASP 54 bp]”, for which the binding result in series [1] (same weak binding as WT AcrIF24) is recorded as “binds more weakly”; in series [2] (setting [7]), “binds more weakly”; in series [5] it was “binds more weakly”; in series [3] (setting [7]), “binds more weakly”; in series [4] it was “no binding”.
